Taken from: PubChem BioAssay AID504784 (Drosophila RNAi Screening Center, 2011)

- Purpose: 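Search for regulators of lipid droplet storage in oleate-fed fly cells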 (primary screen)
- System: Drosophila Kc167 embryonic cells
- Knock-down reagent: long dsRNA against Drosophila genes, about 250 ng dsRNA per well
- Timing: 4 days
- Treatment: cells fed 400 µM oleic acid bound to BSA
- Measured: 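Microscope images give a droplet-to-nucleus area ratio, taken as log and converted to a screen-wide B-score; higher values mean greater lipid storage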
- Scale: droplet/nuclear area B-score: higher = more stored lipid (overstorage)
In all, the deposit lists about 17,000 reagents; below is a random part of those with a known target gene and a result. 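Each column is one replicate's B-score; the combined score over replicates was not deposited, so single values may mislead.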 Reagents against one gene are numbered here. A plus sign joins genes that one reagent is predicted to hit.

target gene	reagent	droplet/nuclear area B-score, replicate 1	droplet/nuclear area B-score, replicate 2	droplet/nuclear area B-score, replicate 3
CG18213	1	-1.13	-1.13	
Vha16-4 + CG15614	1	0.0273	-0.196	
RPA1	1	-3.7	-0.158	
CG5377	1	-0.819	0.635	
CG15406	1	-1.85	0.00911	
ric8b + ric8a	1	-0.0203	-0.375	-1.28
CG14915	1	-2.19	-1.22	
gnu	1	0.138	-1.6	-0.427
btl	1	-1.32	-0.689	
Gad1	1	0.348	-0.409	
CG11964	1	0.56	-1.68	
5-HT1A	1	-0.0428	-0.355	
Nup133	1	0.749	-0.277	
CG14770	1	0.502	-0.647	
Prosbeta4R2	1	-0.0131	1.76	
Z600	1	0.307	-0.159	
Sgf29	1	0.972	-0.473	
CG12010	1	-0.3	-0.179	
CG1941	1	0.429	-0.685	
CG10834	1	-0.522	-0.195	
NijB	1	-0.775	-1.63	
CCDC151	1	-0.719	-0.0478	
AANATL6	1	0.413	-0.654	
ND-B14.5B	1	0.945	-0.2	
CG14543	1	2.49	4.55	
CG13028	1	-0.234	-1.2	
H15	1	-2.5	2.27	
H15	2	0.00246	-1.67	
CG5653	1	-1.71	-1.02	
Mtap	1	0.908	0.465	
NiPp1	1	0.0585	0.593	
CG4004	1	1.46	0.022	0.0121
CG4004	2	-0.0232	1.13	0.79
stck	1	-0.356	-0.663	
sel	1	0.0295	-0.563	0.16
Blos2	1	-0.739	-0.842	
fzy	1	2.08	1.26	
CG9123	1	-0.231	-1.55	
alpha-Est2	1	-0.0205	-0.182	
Cul5	1	-0.196	0.333	
GstE11	1	0.733	-1.53	
Mp	1	-0.0535	-1.04	0.522
Mp	2	-0.888	0.146	
Mp	3	-0.285	1.06	
CG13995	1	0.933	0.352	0.67
CG13995	2	-1.26	-2.53	
CG13995	3	1.53	0.811	
CG2680	1	0.0744	-0.612	
Strn-Mlck	1	0.153	-0.32	
Strn-Mlck	2	-0.627	-0.304	
CG13473	1	2.95	-0.323	0.905
CG9550	1	-0.84	-0.601	
CG17764	1	-1.26	1.26	
CG17764	2	0.422	1.21	
Pex2	1	1.72	1.64	
CG11999	1	-0.0827	1.58	
CG8197	1	-0.151	0.419	
CG32576 + UQCR-14	1	1.48	3.45	
CG15263	1	1.95	-1.2	0.224
Hsp70Aa + Hsp70Ab	1	3.8	3.91	
CG34214	1	1.56	0.138	
CG2233	1	-0.376	-3.49	0.356
Cp19	1	-0.921	-0.827	
TTLL6A	1	0.701	0.164	
betaNACtes2	1	-1.51	-1.17	
Nrg	1	-1.24	-1.32	
Nrg	2	0.0484	1.89	1.31
CG9997	1	-1.23	1.26	
Es2	1	0.254	1.65	0.568
CG8861	1	1.67	-0.0549	
CG8861	2	-0.428	0.819	
CG5250	1	-0.109	-0.64	
robo1	1	-0.0302	-0.293	
CHKov2	1	-0.501		
PDZ-GEF	1	-1.59	0.788	
Mst84Dc	1	-0.348	0.34	
Ets97D	1	1.35	2.12	
CG18537	1	-1.48	0.0759	
Pbp95	1	0.37	-0.0517	
CG32815	1	-0.25	-1.45	
CAH8	1	-1.38	-1.26	
CG34435	1	-0.0488		
mbt	1	5.98		
mbt	2	-0.85	-3.4	
